Results are given in words; binding and its absence hold for the method and conditions named. Some binding calls cover weakened binding; strength is not graded here.
Molecular target: T1, IsaA (immunodominant structure IsaA of Staphylococcus aureus) (Staphylococcus aureus) (UniProt P99160)
T1 sequence (looked up): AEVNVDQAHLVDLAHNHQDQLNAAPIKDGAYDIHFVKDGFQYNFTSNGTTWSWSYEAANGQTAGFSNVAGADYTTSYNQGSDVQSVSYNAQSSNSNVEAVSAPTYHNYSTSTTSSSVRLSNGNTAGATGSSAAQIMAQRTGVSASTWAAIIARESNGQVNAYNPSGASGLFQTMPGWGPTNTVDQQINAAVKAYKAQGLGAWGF
Assay: bacterial cell ELISA: plates coated with whole S. aureus cells (5x10^7 per well), antibody diluted 1:2000, HRP-linked secondary antibody, OD 450 nm; IsaA on the cells, with the deletion strain MA12isaA- as control

B1: antibody UK66-2 (antibody, V domains shown)
VH: EVQLLESGGGLVQPGGSLRLSCAASGFTFSNYYMSWVRQAPGKGLEWVSDINGNGGSTYYPDTVKGRFTISRDNSKNTLYLQMNSLRAEDTAVYYCVRRGGYYALDYWGQGTTVTVSS
VL: DVVMTQTPLSLSVTPGQPASISCRSSQSLVHINGNTYLHWYLQKPGQSPQLLIYRVSNRFSGVPDRFSGSGSGTDFTLKISRVEAEDVGVYYCSQSTHVPWTFGGGTKLELKR
binding: binds
